Source: paper PMC5175174
These are yes or no findings as the source states them, for the method shown.

By UniProt entry, the sequences of proteins in these tests, tags left out. Residues count along the entry.
UniProt A0A0R6L508, residues 219-541: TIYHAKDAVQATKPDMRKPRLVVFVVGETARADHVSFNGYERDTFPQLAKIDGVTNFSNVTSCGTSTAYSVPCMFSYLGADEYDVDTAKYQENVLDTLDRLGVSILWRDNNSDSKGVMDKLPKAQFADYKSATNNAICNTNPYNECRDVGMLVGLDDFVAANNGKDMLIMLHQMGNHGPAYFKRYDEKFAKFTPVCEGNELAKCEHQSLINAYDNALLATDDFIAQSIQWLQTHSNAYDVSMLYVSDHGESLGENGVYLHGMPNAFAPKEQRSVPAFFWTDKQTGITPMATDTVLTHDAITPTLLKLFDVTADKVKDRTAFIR

Target: C-terminal catalytic domain of MCR-1
Assay: SEC-MALS; printed only as 'multi-angle light scattering method' (Fig. S1); conditions not told in the text shown; both purified

C-terminal catalytic domain of MCR-1 (from UniProt A0A0R6L508 219-541) (domain or fragment)
binding: no binding
